3 substances from PMC9889334 can be followed below.

The target in assay [1] is T1, PaPcc1 with C-terminal hexa-histidine tag (Pyrococcus abyssi Pcc1) (Pyrococcus abyssi) (UniProt Q9V1Z9).
T1 sequence: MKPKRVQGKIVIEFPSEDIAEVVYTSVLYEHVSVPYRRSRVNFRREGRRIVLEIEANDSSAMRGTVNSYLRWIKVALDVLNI
The experiment in a line: co-purification (Ni-NTA affinity chromatography, then size exclusion chromatography); E. coli cells expressing untagged subunits and His6-tagged PaPcc1 or PaPcc2 mixed and lysed together; lysate heated at 65 °C; captured by the His6 tag on Ni-NTA at room temperature (20 mM Tris-HCl pH 8, 500 mM NaCl, 5 mM ß-mercaptoethanol, 10% glycerol), then SEC.

Assay [2] concerns the target T1, PaPcc1 with C-terminal hexa-histidine tag (Pyrococcus abyssi Pcc1) (Pyrococcus abyssi). The experiment in a line: crystal structure; PaPcc1-PaPcc2 at 7.9 mg/mL; 15% PEG 6K, 5% glycerol, 18 °C; 3.18 Å; both purified.

These are yes or no findings as the source states them, for the method shown. Binding can be weak; no strength is given. Sequences can lack the tags named with a protein. For some of these results: Binding seen in cells or lysates may run through a third protein.

Turning to “PaBud32 (Pyrococcus abyssi Bud32) (enzyme)”, in assay [1], the binding result was “binds”.

With PaCgi121 (Pyrococcus abyssi Cgi121), the binding entry in assay [1] is reported as “binds”.

Regarding “PaPcc2 with C-terminal Strep-tag (Pyrococcus abyssi Pcc2)”, the binding entry in assay [2] and in assay [1] was “binds” in each case.
